Measured values: patent US5922557A, “System for stably expressing a high-affinity camp phosphodiesterase and use thereof” (Merck & Co., Inc., priority 1998, dated 1999)
The name of at least one read-out is uncertain.

Assay: Kinetic characterization of PDE IVa enzymes with cAMP as substrate
Type: biochemical
Conditions: 150 mM KCl, 0 mg/ml HSA
Procedure: PDE IVa activity was assayed in the 100,000×g supernatant obtained from sonicated CHO-K1 cells stably expressing the enzyme. The enzyme activity was assayed in duplicate at substrate concentrations ranging from 0.2 μM to 30 μM using the Amersham SPA beads as described in Materials and Methods. Shown are the saturation kinetics for the enzyme. The inset graph is a double-reciprocal plot of the kinetic data. Average of 3 separate experiments +/- SD .
Panel A. Shown are the saturation kinetics for the enzyme.PDE IVA activity was assayed in the 100,000×g supernatant obtained from sonicated CHO-K1 cells stably expressing the enzyme. The enzyme activity was assayed in duplicate at substrate concentrations ranging from 0.2 mM to 10 mM using the Amersham SPA beads as described in Materials and Methods. Average of 3 separate experiments +/- SEM . Panel B. Double-reciprocal replot of the averaged saturation data.

B1: FLAG PDE IVA: purified full-length epitope FLAG PDE IVA enzyme (protein, UniProt P27815 1-886, looked up)
chain: MEPPTVPSERSLSLSLPGPREGQATLKPPPQHLWRQPRTPIRIQQRGYSDSAERAERERQPHRPIERADAMDTSDRPGLRTTRMSWPSSFHGTGTGSGGAGGGSSRRFEAENGPTPSPGRSPLDSQASPGLVLHAGAATSQRRESFLYRSDSDYDMSPKTMSRNSSVTSEAHAEDLIVTPFAQVLASLRSVRSNFSLLTNVPVPSNKRSPLGGPTPVCKATLSEETCQQLARETLEELDWCLEQLETMQTYRSVSEMASHKFKRMLNRELTHLSEMSRSGNQVSEYISTTFLDKQNEVEIPSPTMKEREKQQAPRPRPSQPPPPPVPHLQPMSQITGLKKLMHSNSLNNSNIPRFGVKTDQEELLAQELENLNKWGLNIFCVSDYAGGRSLTCIMYMIFQERDLLKKFRIPVDTMVTYMLTLEDHYHADVAYHNSLHAADVLQSTHVLLATPALDAVFTDLEILAALFAAAIHDVDHPGVSNQFLINTNSELALMYNDESVLENHHLAVGFKLLQEDNCDIFQNLSKRQRQSLRKMVIDMVLATDMSKHMTLLADLKTMVETKKVTSSGVLLLDNYSDRIQVLRNMVHCADLSNPTKPLELYRQWTDRIMAEFFQQGDRERERGMEISPMCDKHTASVEKSQVGFIDYIVHPLWETWADLVHPDAQEILDTLEDNRDWYYSAIRQSPSPPPEEESRGPGHPPLPDKFQFELTLEEEEEEEISMAQIPCTAQEALTAQGLSGVEEALDATIAWEASPAQESLEVMAQEASLEAELEAVYLTQQAQSTGSAPVAPDEFSSREEFVVAVSHSSPSALALQSPLLPAWRTLSVSEHAPGLPGLPSTAAEVEAQREHQAAKRACSACAGTFGEDTSALPAPGGGGSGGDPT
modifications: full-length FLAG epitope tag
B1 showed a Km of 2.9 ± 0.4 µM.
